We go through two molecules from article PMC3861177.

Amino acid sequences for entries named in this document (tags omitted). A change or cut given only in a name is not applied to a line headed by its entry.
UniProt O60603: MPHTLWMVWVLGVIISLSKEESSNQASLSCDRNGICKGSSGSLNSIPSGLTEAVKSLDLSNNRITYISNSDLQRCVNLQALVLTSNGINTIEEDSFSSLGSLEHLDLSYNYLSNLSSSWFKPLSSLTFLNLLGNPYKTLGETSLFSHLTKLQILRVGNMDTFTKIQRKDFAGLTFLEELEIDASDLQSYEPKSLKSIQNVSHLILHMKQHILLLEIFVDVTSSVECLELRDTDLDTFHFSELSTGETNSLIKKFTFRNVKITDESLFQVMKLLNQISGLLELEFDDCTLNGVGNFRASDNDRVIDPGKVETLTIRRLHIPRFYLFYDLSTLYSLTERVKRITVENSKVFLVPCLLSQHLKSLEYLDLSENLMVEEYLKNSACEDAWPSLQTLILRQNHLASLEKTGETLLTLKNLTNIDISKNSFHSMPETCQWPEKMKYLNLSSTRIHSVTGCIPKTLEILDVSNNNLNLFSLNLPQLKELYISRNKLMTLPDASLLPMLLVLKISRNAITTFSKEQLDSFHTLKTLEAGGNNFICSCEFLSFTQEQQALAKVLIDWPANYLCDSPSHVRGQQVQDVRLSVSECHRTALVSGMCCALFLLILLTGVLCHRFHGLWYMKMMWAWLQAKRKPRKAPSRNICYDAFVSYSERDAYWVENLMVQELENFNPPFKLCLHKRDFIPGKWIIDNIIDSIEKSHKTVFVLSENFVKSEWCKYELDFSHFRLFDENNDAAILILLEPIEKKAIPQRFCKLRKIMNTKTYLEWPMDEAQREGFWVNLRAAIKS

The target of assay [1] is T1, Pam3-Cys-Ser-Lys4 (Pam3CSK4) conjugated-biotin.
T1 sequence (peptide, Pam3 on the Cys (as printed, Pam3-Cys-Ser-Lys4); biotin, position not stated): CSKKKK
The assay can be described thus: flow cytometry on cells; Pam3CSK4-biotin held on Streptavidin-Agarose beads; HEK-Blue2 cells treated with the beads for 1h, beads isolated and washed 3 times with PBS, bead-associated cells quantified with anti-TLR2 antibody; only the target purified. (In general: A flow cytometer gives signals particle by particle.)

Assay [2] addresses TLR2 on HEK-293 cells expressing only TLR2 (UniProt O60603). As to the kind of experiment: flow cytometry on cells; cells treated with Pam3CSK4-biotin 100ng/ml on ice; ligand on the cell surface stained with mouse anti-biotin/goat anti-mouse-phycoerythrin; only the binder purified.
The target in assay [3] is human TLR2 on HEK-Blue2 cells (human) (UniProt O60603). Described as above.

No constants are given. Whether binding was seen depends on the method and setting. Some entries that bind do so weakly or less than the wild type.

With “human TLR2 on HEK-Blue2 cells (from UniProt O60603 21-784) (receptor)”, the binding result in assay [1] is on record as “binds”.
Regarding CSKKKK (Pam3 on the Cys (as printed: Pam3-Cys-Ser-Lys4); biotin, position not stated) [Pam3-Cys-Ser-Lys4 (Pam3CSK4) conjugated-biotin], the binding entry in assay [2] and in assay [3] was “binds” throughout.
